No constants are given. Whether binding was seen depends on the method and setting. In cells and extracts the contact can be indirect. Some results given as binding are weak or reduced against the parent protein; the word gives no strength. Tags and fused reporters may be left off the sequences shown.
B1: Flag-tagged full-length CHDP-1 (protein, UniProt P91027 1-338)
chain: MSEEIKKIEEVAEQDKAPKVPTTEPPVDVPAPVTEEAPKVEEAVAEIAAPAAAEGETATAAAAAPEEKKKSGGVARRFTFNKRWGKHRDAEASTPKEPEAPKDPKEDVLGWIAQQIPQAVHKANYQVIDWVQKTAIPEEGERKTIPGKDQATTRNQFIGFFKDGDVLAKLANALEPGAVEVAAAEENADAAAQKEVQKKNIDAFGAWAQKTLGTEAAPVTNEDLLEKGKAGYTAVFQTLWQLGVQAKEKFDKEGFNVDTIVQLANSVVKSGLLTTILGFFRRNRQAAAAVEEPKDETAAAEGAGEAKEEGATGEVADTADEPVAVKQETSAPAAVAAN
B2: CHDP-1 CH domain fragment (AA 121-242) (domain or fragment, UniProt P91027 121-242)
chain: HKANYQVIDWVQKTAIPEEGERKTIPGKDQATTRNQFIGFFKDGDVLAKLANALEPGAVEVAAAEENADAAAQKEVQKKNIDAFGAWAQKTLGTEAAPVTNEDLLEKGKAGYTAVFQTLWQL

Target: Flag-tagged full-length CHDP-1 (C. elegans) (UniProt P91027)
Experiment: co-IP; HEK293T cells co-transfected with Flag- and Myc-tagged constructs; lysates incubated with anti-FLAG M2 affinity gel beads at 4 °C overnight, washed three times, immunoblot

| Binder | binding |
| --- | --- |
| B1 | binds |
| B2 | binds |

Source: PMC4944944
